The other results are listed elsewhere or left out. Further columns of the screen follow, without active or inactive calls. Most of these compounds were active or inconclusive in the main read-out, so they are no random draw. Potencies come from curve fits of mixed quality, noted in brackets.
Experiment: qHTS Assay to Find Inhibitors of Chronic Active B-Cell Receptor Signaling
Conditions: ABC-DLBCL IkBa-CBG/CBR reporter, luminescence ratio (green luciferase fused to IkBa over red control in TMD8 lymphoma cells), 4 h
In short: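 Cell line TMD8 (human ABC DLBCL), stably expressing tet-inducible CBG68-IkBa fusion and CBR; IMDM/0.5% FBS; cpd up to 46 uM; dox induction, 4 h, 37C/5% CO2; dual luminescence; green/red ratio; MG132 control.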

[1] = measured here: CBR red luminescence, cell number
[2] = measured here: IkBa-CBG green luminescence

| SMILES | AC50 [1] | AC50 [2] |
| --- | --- | --- |
| COc1ccc(NC(=O)C2CC(=O)N(c3cc(C)ccc3C)C2)cc1 (stereo not given) | 23.1 µM [rising, partial curve, poor fit] | – |
| COc1ccc(NCc2ccc(OC)c(OC)c2)cc1 | 7.08 µM [rising, partial curve] | – |
| O=C(Nc1ccccc1C(=O)NCCCn1ccnc1)c1ccccc1 | 0.116 µM [falling, full curve, poor fit] | – |
| COc1cccc(/C=C2\SC(=S)N(N3CCOCC3)C2=O)c1OC | 14.6 µM [rising, single point] | – |
| Cc1nc(N2CCN(c3ccccc3O)CC2)c2c(-c3ccccc3)csc2n1 | 20 µM [falling, single point] | – |
| CN(C)N=Nc1nc2c(c(=O)n(C)c(=O)n2C)n1C | 3.98 µM [falling, full curve] | – |
| CC1(C)CC(NC(=O)c2cc(S(=O)(=O)N3CCCCC3)ccc2Cl)CC(C)(C)N1 | 0.794 µM [rising, full curve, poor fit] | – |
| COc1c(Br)cc(/C=N/n2c(-c3ccccc3)n[nH]c2=S)c(O)c1Br | 22.4 µM [falling, partial curve] | – |
| CC(C)n1cc(-c2ccc(Cl)cc2)cc(C#N)c1=O | 2.06 µM [rising, full curve, poor fit] | – |
| Cc1ccc(NC(=O)c2ccc3c(c2)OCCO3)nc1 | 11.6 µM [falling, partial curve] | – |
| COc1ccc2c(c1)C(c1cccs1)=NNC(c1cccnc1)=N2 | 11.2 µM [falling, partial curve] | – |
| O=C(NC1CCCC1)C(c1cccs1)N(Cc1ccco1)C(=O)c1csnn1 (stereo not given) | 20.6 µM [falling, single point] | – |
| COc1ccc(CCNC(=O)c2ccc(SC)cc2OC)cc1 | 31.6 µM [falling, single point] | – |
| COc1ccc(CNc2nc(NCc3ccc(OC)cc3)c3ncn(C4CCCC4)c3n2)cc1 | 8.2 µM [rising, partial curve] | 4.61 µM [falling, full curve] |
| O=[N+]([O-])c1ccc(Sc2cccc[n+]2[O-])c2nonc12 | 7.08 µM [falling, partial curve, poor fit] | – |
| O=C(/C=C/c1cccs1)Nc1nc(-c2ccccc2)cs1 | 9.2 µM [falling, partial curve, poor fit] | – |
| Cc1cc(C(=O)Nc2cccc3ccccc23)co1 | 7.94 µM [falling, partial curve, poor fit] | – |
| COc1cc(C(=O)N2CCC(C(=O)Nc3cccc(C(C)=O)c3)CC2)cc(OC)c1OC | 7.94 µM [rising, partial curve] | – |
| O=C(O)c1ccc(-n2nnnc2Oc2ccccc2C(=O)N2CCOCC2)cc1 | 20.6 µM [rising, partial curve, poor fit] | – |
| Cc1cc(=O)n2c3ccccc3n(CC(O)CN3CCCC3)c2c1C#N (stereo not given) | 6.31 µM [rising, full curve, poor fit] | – |
| COc1ccc(S(=O)(=O)N2Cc3ccccc3CC2C(=O)O)cc1 (stereo not given) | 6.51 µM [rising, single point] | – |

Two successive records already listed:

| SMILES | AC50 [1] | AC50 [2] |
| --- | --- | --- |
| Cc1cc(=O)n2c3ccccc3n(CC(O)CN3CCCC3)c2c1C#N (stereo not given) | 6.31 µM [rising, full curve, poor fit] | – |
| COc1ccc(S(=O)(=O)N2Cc3ccccc3CC2C(=O)O)cc1 (stereo not given) | 6.51 µM [rising, single point] | – |

Later entries

| SMILES | AC50 [1] | AC50 [2] |
| --- | --- | --- |
| N#Cc1ccccc1S(=O)(=O)N1CCN(C(=O)C2COc3ccccc3O2)CC1 (stereo not given) | 2.06 µM [rising, full curve, poor fit] | – |
| CC(=O)NC1CC2CCCC(C1)N2CC(=O)N1CCCc2ccccc21 (stereo not given) | 29.1 µM [rising, single point] | – |
| CN(C(=O)c1ccncc1)c1nnc(-c2ccncc2)s1 | 25.9 µM [rising, single point] | – |
| COc1cc(/C=C2\SC(=S)N(Nc3ccccc3)C2=O)cc(OC)c1OC | 20 µM [falling, single point] | – |
| NC(=S)N/N=C\c1ccc(-c2cccc(Cl)c2Cl)o1 | 5.17 µM [rising, full curve, poor fit] | 3.66 µM [falling, full curve] |
| CC(O)CNCCCOc1ccc(Cl)cc1C(C)(C)C (stereo not given) | 35.5 µM [falling, single point] | – |
| COc1cccc2c(=O)n(CC(=O)N3CCCCCC3)ccc12 | 29.1 µM [falling, single point] | – |
| CCc1ccccc1OCC(=O)Nc1ccc(S(N)(=O)=O)cc1 | 1.16 µM [falling, full curve, poor fit] | – |
| CC(=O)O/N=C/c1c(N2CCOCC2)n(C)c2ccccc12 | 11.2 µM [falling, partial curve] | – |
| O=C(COc1ccccc1[N+](=O)[O-])Nc1ccc2c(c1)CCC2 | 3.26 µM [rising, partial curve, poor fit] | – |
| O=C(c1ccccc1-c1nc(-c2ccccc2)no1)N1CCOCC1 | 15.8 µM [rising, single point] | – |
| O=C(OCCc1cc2ccccc2c(=O)o1)c1ccc2c(c1)OCO2 | 29.1 µM [falling, single point] | – |
| CC/C(C)=N/NC(=O)c1[nH]c2ccc(C)cc2c1-c1ccccc1 | – | 3.55 µM [falling, full curve] |
| CCC(CC)c1nc2ccccc2c(=O)[nH]1 | 14.1 µM [falling, partial curve] | – |
| O=C(CSc1nnc(-c2csc3c2CCCC3)o1)Nc1ccccc1 | 11.6 µM [falling, partial curve, poor fit] | – |
| COc1ccccc1C(=O)n1nc(-c2ccc(Cl)cc2)nc1N | 0.58 µM [falling, full curve] | – |
| O=C1NC(=O)/C(=C\c2ccc(OCc3ccccc3)cc2)S1 | 2.82 µM [rising, partial curve, poor fit] | – |
| O=S(Cc1ccc(Br)cc1)Cc1nnc(SCc2ccc(Cl)cc2)n1-c1ccccc1 (stereo not given) | 25.1 µM [falling, single point] | – |
| CCOc1cc(-c2cc(-c3ccc(C)o3)nc(N)c2C#N)ccc1O | 0.82 µM [falling, full curve] | – |
| COC(=O)c1ccc(C(=O)Nc2ccc(F)cc2)cc1 | 0.058 µM [falling, full curve] | – |
| CC(=O)c1c(C)[nH]c(C(=O)OCC(=O)c2c[nH]c3ccccc23)c1C | 29.1 µM [falling, single point] | 18.4 µM [falling, partial curve, poor fit] |

— PubChem BioAssay AID493014 (National Center for Advancing Translational Sciences (NCATS), 2011)
